These are yes or no findings as the source states them, for the method shown. Binding seen in cells or lysates may run through a third protein. These calls come from enrichment with a bait or labelling near it, and not all partners need be listed.
Biological target: GluA1 subunit of native AMPA receptors from rat cerebellum (rat (endogenous in cerebellum)) (UniProt P19490)
Assay: affinity purification with mass spectrometry; rat cerebellum in 2% digitonin with (R,R)-2b and MPQX; GluA1 captured by 11B8 scFv–GFP–3C–Twin-Strep on Strep-Tactin XT (GluA2-containing receptors kept on the resin by 15F1 Fab), 3C release, FSEC; western blot and mass spectrometry

The chains behind the UniProt entries cited, without tags or fusion partners. Residues count along the entry.
UniProt P19490, residues 19-907: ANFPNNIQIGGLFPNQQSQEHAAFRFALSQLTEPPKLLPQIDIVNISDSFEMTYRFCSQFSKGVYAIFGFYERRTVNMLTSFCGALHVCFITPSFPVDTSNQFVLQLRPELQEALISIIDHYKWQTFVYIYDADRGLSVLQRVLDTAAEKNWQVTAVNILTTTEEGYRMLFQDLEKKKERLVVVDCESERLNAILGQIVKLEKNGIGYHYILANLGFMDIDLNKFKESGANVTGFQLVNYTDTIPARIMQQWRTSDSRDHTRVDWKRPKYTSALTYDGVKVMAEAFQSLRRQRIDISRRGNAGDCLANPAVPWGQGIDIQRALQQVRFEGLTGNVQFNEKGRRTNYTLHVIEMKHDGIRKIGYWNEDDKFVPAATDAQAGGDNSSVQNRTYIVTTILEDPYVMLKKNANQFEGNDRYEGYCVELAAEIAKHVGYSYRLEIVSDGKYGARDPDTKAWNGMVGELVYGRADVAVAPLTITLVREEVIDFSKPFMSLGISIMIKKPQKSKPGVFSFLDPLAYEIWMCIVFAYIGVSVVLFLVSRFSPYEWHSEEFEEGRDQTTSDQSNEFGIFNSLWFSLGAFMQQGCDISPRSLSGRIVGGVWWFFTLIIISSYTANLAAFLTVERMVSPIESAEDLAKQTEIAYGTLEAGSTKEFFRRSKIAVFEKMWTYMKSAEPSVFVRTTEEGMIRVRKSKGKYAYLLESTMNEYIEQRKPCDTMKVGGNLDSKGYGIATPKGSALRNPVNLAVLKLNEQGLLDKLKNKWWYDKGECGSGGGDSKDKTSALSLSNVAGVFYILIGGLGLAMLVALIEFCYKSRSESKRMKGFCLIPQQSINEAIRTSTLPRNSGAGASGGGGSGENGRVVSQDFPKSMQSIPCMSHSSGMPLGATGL

B1: noelin-3 (NOE3) (protein, UniProt P63057 24-478)
chain: QTLPSLVGLNTTRLSAPDTLTQISPKEGWQVYSSAQDPDGRCICTVVAPEQNLCSRDAKSRQLRQLLEKVQNMSQSIEVLNLRTQRDFQYVLKMETQMKGLKAKFRQIEDDRKTLMTKHFQELKEKMDELLPLIPVLEQYKTDAKLITQFKEEIRNLSSVLTGIQEEIGAYDYEELHQRVLSLETRLRDCMKKLTCGKLMKITGPITVKTSGTRFGAWMTDPLASEKNNRVWYMDSYTNNKIVREYKSIADFVSGAESRTYNLPFKWAGTNHVVYNGSLYFNKYQSNIIIKYSFDLGRVLAQRSLEYAGFHNVYPYTWGGFSDIDLMADEIGLWAVYATNQNAGNIVISQLNQDTLEVMKSWSTGYPKRSAGESFMICGTLYVTNSHLTGAKVYYSYSTKTSTYEYTDIPFHNQYFHISMLDYNARDRALYAWNNGHQVLFNVTLFHIIKTEDDT
In the case of B1, the binding is reported as “binds”.
